Laboratory results reported in PMC7194077.

Assays:
[1] = target: T1, C-terminally S-tagged derivative of NctA (NctA-S-tag) (Aspergillus fumigatus) (UniProt B0XTT5); experiment: affinity purification with mass spectrometry; S-tagged bait captured from crude A. fumigatus protein extract on S-protein agarose beads, 4 °C for 2 h, washed in HK buffer with 100 mM NaCl, eluted in Laemmli sample buffer, LC/MS identification (>2 matched peptides)
T1 sequence: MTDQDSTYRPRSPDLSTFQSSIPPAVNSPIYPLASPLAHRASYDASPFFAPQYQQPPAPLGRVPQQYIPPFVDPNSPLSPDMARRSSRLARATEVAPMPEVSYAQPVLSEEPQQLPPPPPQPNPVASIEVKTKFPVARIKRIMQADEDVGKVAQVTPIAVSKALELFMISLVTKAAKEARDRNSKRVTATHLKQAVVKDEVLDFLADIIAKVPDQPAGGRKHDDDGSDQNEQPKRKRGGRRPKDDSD

[2] = target: T2, C-terminally S-tagged version of NctB (NctB-S-tag) (Aspergillus fumigatus) (UniProt B0Y0F3); experiment: as above
T2 sequence: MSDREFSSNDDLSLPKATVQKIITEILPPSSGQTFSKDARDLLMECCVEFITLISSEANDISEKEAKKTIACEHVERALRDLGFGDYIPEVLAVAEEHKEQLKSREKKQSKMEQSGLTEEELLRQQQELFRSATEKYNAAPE

**Q.** Which binding [1] does the source give for “TBP-associated transcriptional regulator Mot1” here?
**A.** Its binding is “binds”.

**Q.** What about the binding [2] of the same molecule?
**A.** The binding was “binds”.

**Q.** How did the binding [1] turn out when transcriptional co-repressor Cyc8 was run?
**A.** Its binding is “binds”.

B1: NctB (protein, UniProt B0Y0F3 1-142)
chain: MSDREFSSNDDLSLPKATVQKIITEILPPSSGQTFSKDARDLLMECCVEFITLISSEANDISEKEAKKTIACEHVERALRDLGFGDYIPEVLAVAEEHKEQLKSREKKQSKMEQSGLTEEELLRQQQELFRSATEKYNAAPE
**Q.** How did the binding [1] turn out when B1 was run?
**A.** Its binding is “binds”.

B2: NctA (protein, UniProt B0XTT5 1-247)
chain: MTDQDSTYRPRSPDLSTFQSSIPPAVNSPIYPLASPLAHRASYDASPFFAPQYQQPPAPLGRVPQQYIPPFVDPNSPLSPDMARRSSRLARATEVAPMPEVSYAQPVLSEEPQQLPPPPPQPNPVASIEVKTKFPVARIKRIMQADEDVGKVAQVTPIAVSKALELFMISLVTKAAKEARDRNSKRVTATHLKQAVVKDEVLDFLADIIAKVPDQPAGGRKHDDDGSDQNEQPKRKRGGRRPKDDSD
**Q.** Which binding [2] does the source give for B2 here?
**A.** The binding was “binds”.

No constants are given. Whether binding was seen depends on the method and setting. In cells and extracts the contact can be indirect. A yes stands for co-enrichment or nearness to the bait. Other partners may have been found. Tags and fused reporters may be left off the sequences shown.
